Experimental data: the M2OR odorant receptor database
Where a chain is given by its changes, count along the chain named. The entries are a selection whose mix differs from that of the whole data set. Calls are pooled over several reports, among them a noisy single-well screen. Some of the results follow.

Chains of the proteins cited; added tags and fusions are not shown. A line that says so, or that is headed by a name, gives the form on record, which may keep a tag or linker.
O4C46, as listed by the source: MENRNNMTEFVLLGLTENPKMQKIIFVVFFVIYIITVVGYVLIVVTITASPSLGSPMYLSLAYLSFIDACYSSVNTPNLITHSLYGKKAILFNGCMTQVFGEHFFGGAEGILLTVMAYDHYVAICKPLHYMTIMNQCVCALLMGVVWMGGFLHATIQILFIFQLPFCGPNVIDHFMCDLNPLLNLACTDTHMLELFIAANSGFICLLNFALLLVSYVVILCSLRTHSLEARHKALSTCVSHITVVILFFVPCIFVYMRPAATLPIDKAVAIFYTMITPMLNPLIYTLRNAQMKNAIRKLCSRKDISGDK
O4F17, as listed by the source: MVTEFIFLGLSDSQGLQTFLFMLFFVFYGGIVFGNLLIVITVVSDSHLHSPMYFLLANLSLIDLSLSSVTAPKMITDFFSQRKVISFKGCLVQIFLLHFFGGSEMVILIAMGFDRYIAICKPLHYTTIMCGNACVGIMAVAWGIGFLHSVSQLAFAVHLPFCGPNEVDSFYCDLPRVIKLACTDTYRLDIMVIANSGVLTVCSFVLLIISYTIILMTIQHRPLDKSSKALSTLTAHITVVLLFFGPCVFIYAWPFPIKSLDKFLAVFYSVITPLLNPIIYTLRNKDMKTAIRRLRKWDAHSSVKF
O4A15, as listed by the source: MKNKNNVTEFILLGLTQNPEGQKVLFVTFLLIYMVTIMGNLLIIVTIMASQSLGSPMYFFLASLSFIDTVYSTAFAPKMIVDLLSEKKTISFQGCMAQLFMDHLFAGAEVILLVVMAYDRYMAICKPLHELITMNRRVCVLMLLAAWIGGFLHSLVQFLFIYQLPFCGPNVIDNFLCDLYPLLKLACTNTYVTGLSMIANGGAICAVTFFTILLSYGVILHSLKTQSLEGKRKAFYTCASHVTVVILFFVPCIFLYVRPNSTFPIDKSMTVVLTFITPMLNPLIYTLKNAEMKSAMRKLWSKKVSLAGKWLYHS

Key:
Conditions in all cases: stereoisomer not certain
O2T11 = tested on: T1, O2T11
T1 sequence (whole entry): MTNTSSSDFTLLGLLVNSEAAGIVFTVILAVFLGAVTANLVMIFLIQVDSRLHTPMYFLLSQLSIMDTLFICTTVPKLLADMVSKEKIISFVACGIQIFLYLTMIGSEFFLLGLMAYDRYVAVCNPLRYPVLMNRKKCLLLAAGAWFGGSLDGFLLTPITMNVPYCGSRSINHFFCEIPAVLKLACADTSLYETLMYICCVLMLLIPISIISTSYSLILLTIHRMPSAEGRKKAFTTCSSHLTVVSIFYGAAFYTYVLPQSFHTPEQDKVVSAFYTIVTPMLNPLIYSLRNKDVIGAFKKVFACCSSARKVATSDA
Procedure, shortened: (§1)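 Each receptor–molecule pair is labelled responsive or non-responsive (inactive) according to whether the original authors judged the measured signal statistically different from baseline. The data were taken from the main text and supplementary material of published papers and checked for typos and inconsistencies. Assay methods differed by source, with transient luciferase assays in mammalian cell lines being common.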

O2T29 [1] = tested on: T2, O2T29
T2 sequence (whole entry): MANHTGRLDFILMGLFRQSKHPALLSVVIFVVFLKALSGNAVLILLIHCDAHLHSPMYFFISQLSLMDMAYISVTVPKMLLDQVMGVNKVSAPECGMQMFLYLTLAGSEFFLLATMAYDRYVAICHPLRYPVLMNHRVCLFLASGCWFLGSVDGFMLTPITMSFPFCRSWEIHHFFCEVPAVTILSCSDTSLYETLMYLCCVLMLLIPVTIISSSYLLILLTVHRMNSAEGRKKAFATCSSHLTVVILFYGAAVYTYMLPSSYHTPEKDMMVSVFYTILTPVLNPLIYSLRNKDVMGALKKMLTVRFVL
Procedure, shortened: as §1

O2T29 [2] = tested on: T3, O2T29; remark: listed apart in the source
T3 sequence (whole entry): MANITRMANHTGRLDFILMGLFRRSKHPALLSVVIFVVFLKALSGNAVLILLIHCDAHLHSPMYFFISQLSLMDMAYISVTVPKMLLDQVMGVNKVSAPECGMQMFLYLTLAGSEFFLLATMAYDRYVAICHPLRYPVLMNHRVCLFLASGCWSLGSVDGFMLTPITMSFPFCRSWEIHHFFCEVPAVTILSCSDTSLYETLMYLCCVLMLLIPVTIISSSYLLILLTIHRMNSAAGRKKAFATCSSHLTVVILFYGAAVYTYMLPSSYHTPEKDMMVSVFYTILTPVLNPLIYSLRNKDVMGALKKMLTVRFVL
Procedure, shortened: as §1

O2T33 = tested on: T4, O2T33
T4 sequence (whole entry): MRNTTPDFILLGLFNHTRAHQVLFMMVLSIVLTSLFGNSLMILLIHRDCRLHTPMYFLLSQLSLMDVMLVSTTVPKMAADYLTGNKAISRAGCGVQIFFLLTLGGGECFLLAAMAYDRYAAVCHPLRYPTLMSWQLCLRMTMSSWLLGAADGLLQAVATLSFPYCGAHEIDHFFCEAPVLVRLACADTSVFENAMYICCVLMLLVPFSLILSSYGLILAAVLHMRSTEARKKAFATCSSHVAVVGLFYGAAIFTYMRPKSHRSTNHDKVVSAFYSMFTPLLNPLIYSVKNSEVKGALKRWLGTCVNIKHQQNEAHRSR
Procedure, shortened: as §1

O2T34 = tested on: T5, O2T34
T5 sequence (whole entry): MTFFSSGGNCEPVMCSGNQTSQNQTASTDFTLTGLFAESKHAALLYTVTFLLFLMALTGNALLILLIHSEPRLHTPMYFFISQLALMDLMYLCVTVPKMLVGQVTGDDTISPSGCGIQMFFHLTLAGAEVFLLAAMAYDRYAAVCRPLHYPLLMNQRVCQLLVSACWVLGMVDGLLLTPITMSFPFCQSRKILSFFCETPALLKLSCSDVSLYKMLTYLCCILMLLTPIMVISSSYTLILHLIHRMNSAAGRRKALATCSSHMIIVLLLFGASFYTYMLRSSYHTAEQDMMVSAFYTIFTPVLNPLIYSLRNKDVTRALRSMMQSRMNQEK
Procedure, shortened: as §1

O2T35 = tested on: T6, O2T35
T6 sequence (whole entry): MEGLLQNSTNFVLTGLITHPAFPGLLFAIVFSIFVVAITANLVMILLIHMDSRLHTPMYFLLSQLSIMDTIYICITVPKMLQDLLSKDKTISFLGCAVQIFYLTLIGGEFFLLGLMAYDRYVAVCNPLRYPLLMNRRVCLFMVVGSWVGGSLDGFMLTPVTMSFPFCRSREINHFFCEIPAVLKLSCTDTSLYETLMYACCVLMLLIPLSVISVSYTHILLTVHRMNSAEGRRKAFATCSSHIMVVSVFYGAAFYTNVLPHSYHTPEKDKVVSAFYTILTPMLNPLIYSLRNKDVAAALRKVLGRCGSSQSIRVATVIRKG
Procedure, shortened: as §1

O4A15 = tested on: O4A15
Procedure, shortened: as §1

O4A47 = tested on: T7, O4A47
T7 sequence (whole entry): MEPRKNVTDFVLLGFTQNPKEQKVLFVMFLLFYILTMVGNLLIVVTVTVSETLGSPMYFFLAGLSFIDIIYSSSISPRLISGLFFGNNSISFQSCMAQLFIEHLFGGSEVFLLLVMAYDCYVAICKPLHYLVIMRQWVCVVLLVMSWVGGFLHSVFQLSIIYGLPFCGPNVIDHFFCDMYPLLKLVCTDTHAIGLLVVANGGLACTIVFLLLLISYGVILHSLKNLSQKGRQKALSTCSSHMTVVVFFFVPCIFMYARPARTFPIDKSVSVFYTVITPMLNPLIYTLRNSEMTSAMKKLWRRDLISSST
Procedure, shortened: as §1

O4C46 = tested on: O4C46
Procedure, shortened: as §1

O4F17 [3] = tested on: T8, O4F17
T8 sequence (whole entry): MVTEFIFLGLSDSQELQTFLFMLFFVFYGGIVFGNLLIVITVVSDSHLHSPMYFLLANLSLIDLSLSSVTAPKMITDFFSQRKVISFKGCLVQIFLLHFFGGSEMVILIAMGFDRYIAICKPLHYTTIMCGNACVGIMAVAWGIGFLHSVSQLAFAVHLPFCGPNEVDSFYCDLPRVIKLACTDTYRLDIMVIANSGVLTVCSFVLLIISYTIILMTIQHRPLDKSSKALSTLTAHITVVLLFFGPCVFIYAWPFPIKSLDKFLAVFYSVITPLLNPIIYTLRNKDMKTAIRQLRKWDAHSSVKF
Procedure, shortened: as §1

O4F17 [4] = tested on: T9, O4F17; remark: listed apart in the source
T9 sequence (whole entry): T8 sequence (whole entry) with E15G, Q293R
Procedure, shortened: as §1

O4F21 = tested on: T10, O4F21
T10 sequence (whole entry): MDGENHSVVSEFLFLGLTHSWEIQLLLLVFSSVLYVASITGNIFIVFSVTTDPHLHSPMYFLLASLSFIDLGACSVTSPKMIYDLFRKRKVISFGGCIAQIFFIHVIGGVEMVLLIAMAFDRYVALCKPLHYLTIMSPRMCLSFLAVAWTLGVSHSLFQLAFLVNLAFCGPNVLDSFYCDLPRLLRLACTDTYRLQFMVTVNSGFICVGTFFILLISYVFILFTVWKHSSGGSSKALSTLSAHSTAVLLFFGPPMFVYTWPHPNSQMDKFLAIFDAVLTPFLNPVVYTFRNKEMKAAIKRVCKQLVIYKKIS
Procedure, shortened: as §1

O51A4 = tested on: T11, O51A4
T11 sequence (whole entry): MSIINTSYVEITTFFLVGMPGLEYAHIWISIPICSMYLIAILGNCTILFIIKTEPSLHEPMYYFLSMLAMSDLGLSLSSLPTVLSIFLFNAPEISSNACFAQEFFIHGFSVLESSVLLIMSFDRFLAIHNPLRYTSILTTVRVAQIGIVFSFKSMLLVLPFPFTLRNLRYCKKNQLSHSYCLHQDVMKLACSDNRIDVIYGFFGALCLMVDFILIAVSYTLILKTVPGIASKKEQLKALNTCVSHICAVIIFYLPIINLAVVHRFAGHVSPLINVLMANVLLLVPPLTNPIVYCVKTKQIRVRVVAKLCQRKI
Procedure, shortened: as §1

O51B4 = tested on: T12, O51B4
T12 sequence (whole entry): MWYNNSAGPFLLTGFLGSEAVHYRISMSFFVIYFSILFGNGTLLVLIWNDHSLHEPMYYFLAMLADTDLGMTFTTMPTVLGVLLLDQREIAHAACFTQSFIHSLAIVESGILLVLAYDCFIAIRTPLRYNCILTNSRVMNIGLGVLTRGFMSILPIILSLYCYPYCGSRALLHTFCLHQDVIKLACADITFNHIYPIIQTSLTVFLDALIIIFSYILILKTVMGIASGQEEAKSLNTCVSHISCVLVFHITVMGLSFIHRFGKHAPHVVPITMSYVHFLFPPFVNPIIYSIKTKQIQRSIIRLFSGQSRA
Procedure, shortened: as §1

O51B5 = tested on: T13, O51B5
T13 sequence (whole entry): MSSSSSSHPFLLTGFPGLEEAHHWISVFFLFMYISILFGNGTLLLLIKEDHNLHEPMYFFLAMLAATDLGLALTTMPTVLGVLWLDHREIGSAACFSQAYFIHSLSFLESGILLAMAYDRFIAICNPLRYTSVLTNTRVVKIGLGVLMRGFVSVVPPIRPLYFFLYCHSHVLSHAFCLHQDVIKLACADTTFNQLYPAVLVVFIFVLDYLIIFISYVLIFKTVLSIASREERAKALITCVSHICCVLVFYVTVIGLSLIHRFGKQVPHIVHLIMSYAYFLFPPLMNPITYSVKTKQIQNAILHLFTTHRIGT
Procedure, shortened: as §1

O51B6 = tested on: T14, O51B6
T14 sequence (whole entry): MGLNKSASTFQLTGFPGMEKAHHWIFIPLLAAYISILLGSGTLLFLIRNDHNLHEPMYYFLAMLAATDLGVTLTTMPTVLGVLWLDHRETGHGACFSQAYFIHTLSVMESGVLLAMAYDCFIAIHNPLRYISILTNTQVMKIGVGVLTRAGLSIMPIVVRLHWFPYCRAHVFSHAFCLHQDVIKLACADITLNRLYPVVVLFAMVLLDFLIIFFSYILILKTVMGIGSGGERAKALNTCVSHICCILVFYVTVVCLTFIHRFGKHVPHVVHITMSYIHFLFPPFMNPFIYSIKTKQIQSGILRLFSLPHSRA
Procedure, shortened: as §1

O51E1 = tested on: T15, O51E1
T15 sequence (whole entry): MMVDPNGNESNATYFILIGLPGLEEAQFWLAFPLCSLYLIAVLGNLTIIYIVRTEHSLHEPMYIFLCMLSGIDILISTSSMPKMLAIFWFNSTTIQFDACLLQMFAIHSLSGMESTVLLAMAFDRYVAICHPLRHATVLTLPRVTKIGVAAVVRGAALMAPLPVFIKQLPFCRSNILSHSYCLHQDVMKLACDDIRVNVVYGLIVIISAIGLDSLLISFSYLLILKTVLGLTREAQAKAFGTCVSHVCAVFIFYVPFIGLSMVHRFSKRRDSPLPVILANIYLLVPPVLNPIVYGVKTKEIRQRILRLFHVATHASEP
Procedure, shortened: as §1

O51F1 = tested on: T16, O51F1
T16 sequence (whole entry): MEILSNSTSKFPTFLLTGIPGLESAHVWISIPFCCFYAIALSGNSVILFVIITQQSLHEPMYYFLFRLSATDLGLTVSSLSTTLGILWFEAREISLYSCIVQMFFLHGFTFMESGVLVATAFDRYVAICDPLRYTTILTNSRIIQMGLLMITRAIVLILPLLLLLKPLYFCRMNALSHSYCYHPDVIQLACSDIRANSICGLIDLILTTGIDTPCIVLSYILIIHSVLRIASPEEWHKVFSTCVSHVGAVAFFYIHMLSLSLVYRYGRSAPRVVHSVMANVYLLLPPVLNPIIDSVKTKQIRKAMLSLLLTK
Procedure, shortened: as §1

O51F2 = tested on: T17, O51F2
T17 sequence (whole entry): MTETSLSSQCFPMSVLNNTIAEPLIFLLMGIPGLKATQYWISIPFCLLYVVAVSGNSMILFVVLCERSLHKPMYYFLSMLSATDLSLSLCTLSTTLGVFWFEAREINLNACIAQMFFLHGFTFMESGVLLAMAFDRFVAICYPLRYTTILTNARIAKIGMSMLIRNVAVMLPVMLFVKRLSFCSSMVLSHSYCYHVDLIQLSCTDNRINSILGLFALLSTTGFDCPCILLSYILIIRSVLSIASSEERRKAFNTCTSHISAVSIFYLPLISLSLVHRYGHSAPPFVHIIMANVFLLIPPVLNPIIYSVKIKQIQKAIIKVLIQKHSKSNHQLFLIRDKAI
Procedure, shortened: as §1
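Further: active if original authors judged signal statistically different from baseline.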

Row | SMILES | odorant receptor agonist call (O2T11) | odorant receptor agonist call (O2T29 [1]) | odorant receptor agonist call (O2T29 [2]) | odorant receptor agonist call (O2T33) | odorant receptor agonist call (O2T34) | odorant receptor agonist call (O2T35) | odorant receptor agonist call (O4A15) | odorant receptor agonist call (O4A47) | odorant receptor agonist call (O4C46) | odorant receptor agonist call (O4F17 [3]) | odorant receptor agonist call (O4F17 [4]) | odorant receptor agonist call (O4F21) | odorant receptor agonist call (O51A4) | odorant receptor agonist call (O51B4) | odorant receptor agonist call (O51B5) | odorant receptor agonist call (O51B6) | odorant receptor agonist call (O51E1) | odorant receptor agonist call (O51F1) | odorant receptor agonist call (O51F2)
1 | CCCCCCCCOC(C)=O | inactive | inactive | inactive | inactive | inactive | inactive | inactive | inactive | inactive | inactive | inactive | inactive | inactive | inactive | inactive | inactive | inactive | inactive | inactive
2 | O=CCc1ccccc1 | inactive | inactive | inactive | inactive | inactive | active | inactive | active | inactive | inactive | active | active | inactive | inactive | inactive | active | inactive | inactive | inactive
